In PubChem BioAssay AID493014 (National Center for Advancing Translational Sciences (NCATS), 2011):
The campaign covered roughly 340,000 compounds. About 170 (0.05%) were called active. Inconclusive means that the source gave no clear call. Such entries were picked first, then a sample of the others. Calls come from the whole dose curve; as a rule, active = well fitted inhibition curve with a large enough effect in the signal ratio, with a control signal flat (not every such curve was filed as active); inconclusive = small, poorly fitted or top-dose-only effect, or effect the other way, or a change in a side signal; inactive = flat fitted curve, though single readings scatter; the % refers to the signal ratio. A potency beside an inconclusive call is a rough fit, not a confirmed value.

assay: qHTS Assay to Find Inhibitors of Chronic Active B-Cell Receptor Signaling; details: ABC-DLBCL IkBa-CBG/CBR reporter, luminescence ratio (green luciferase fused to IkBa over red control in TMD8 lymphoma cells), 4 h; activity change, negative = inhibition: at 46.1 µM (top of the series);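 for activity change, negative = inhibition: plate controls were basal doxycycline-induced cells for no effect and cells given 10 µM MG132 for full effect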
How it was run: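 Doxycycline induced both beetle luciferases in TMD8 lymphoma cells; IKK-driven degradation limits the IkappaBalpha-fused green signal, while red luminescence normalises for cell number and nonspecific effects. Compounds tested up to 46 uM, 4 hrs.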
Potency is the fitted concentration of half-maximal effect.

| Compound | Potency | activity change, negative = inhibition |
| --- | --- | --- |
| COc1cccc(Nc2sc(C(=O)c3ccc(F)cc3)c(N)c2C(=O)NCc2ccc(C)cc2)c1 | inconclusive: 20 µM [falling, partial curve, poor fit] |  |
| C/C(=N/Nc1ncc(Br)cn1)c1ccc([N+](=O)[O-])cc1 |  | inconclusive: 4.28% |
| COc1ccc(C(=O)OCC[N+]2(C)CCCCC2)cc1 | inconclusive: 0.1 µM [falling, full curve] |  |
| O=C(C[C@H]1C(=O)N(c2ccc(F)c(F)c2)C[C@@H]1Cc1ccccc1)Nc1ccccc1 |  | inconclusive: 3.48% |
| CCOC(=O)c1c(-c2ccc(C)o2)csc1NC(=O)COC(=O)c1ccc(NC(N)=O)cc1 | inconclusive: 0.731 µM [rising, full curve, poor fit] |  |
| Cc1cccn2c(CNC3CCCc4ccccc43)c(C(=O)N3CCOCC3)nc12 (stereo not given) | inconclusive: 12.6 µM [falling, partial curve, poor fit] |  |
| CC(C)(C)C(=O)Nc1nnc(SCC(=O)NC2CCCCC2)s1 | inconclusive: 12.6 µM [falling, partial curve] |  |
| COc1ccc(NC(=O)CSc2c3c(nc4ccccc24)CCC3)c(OC)c1 |  | inconclusive: -13.5% |
| CC(C)CN1CCC(=O)N([C@H](CO)Cc2ccccc2)CC1 |  | inactive |
| Cn1cnc([N+](=O)[O-])c1SCC(O)CN1CCCCC1 (stereo not given) |  | inconclusive: 1.93% |
| CC(=O)c1cccc(CN2CCN(CCc3ccccc3)C(CCO)C2)c1 (stereo not given) |  | inconclusive: 10% |
| COc1ccc(NC(=O)COC(=O)c2cc(C)oc2C)cc1OC |  | inconclusive: -2.07% |
| O=S(=O)(Nc1cccc(-c2ccc(N3CCCC3)nn2)c1)c1ccc(F)cc1F |  | inconclusive: 5.94% |
| Cc1nn(Cc2ccccc2)c(C)c1C(=O)NCC(c1cccs1)N1CCOCC1 (stereo not given) |  | inconclusive: 17% |
| COc1ccc(C(=O)Nc2cc(OC)cc(OC)c2)cc1 | inconclusive: 7.08 µM [falling, partial curve] |  |
| CN(C)c1ccc(CC(=O)c2nc3ccccc3s2)cc1 |  | inconclusive: 0.176% |
| COc1ccc(S(=O)(=O)Nc2cccc(-n3cnnn3)c2)cc1OC |  | inconclusive: -14.6% |
| COc1ccccc1N1CCN(Cc2ccc(Br)o2)CC1 |  | inconclusive: 17.9% |
| CCC(=O)NC(=S)NNC(=O)c1ccc(O)cc1 | inconclusive: 35.5 µM [falling, single point] |  |
| COc1ccc(C(=O)c2oc3ccccc3c2NC(C)=O)cc1 |  | inconclusive: 8.35% |
| COC(=O)c1ccc(COC(=O)CCC(=O)c2cccs2)cc1 | inconclusive: 32.6 µM [falling, partial curve, poor fit] |  |
| COc1ccccc1/C=N/NC(=O)c1cccc(NC(=O)c2ccccc2C)c1 |  | inconclusive: -7.6% |
| O=C(/C=C/Nc1nccs1)C(F)(F)Cl |  | inconclusive: -0.949% |
| O=C(NCc1ccco1)c1cc([N+](=O)[O-])ccc1N1CCOCC1 |  | inactive |
| CCC(C)n1[nH]c(=O)c2c(C)cc(C)nc21 (stereo not given) |  | inconclusive: 0.941% |

| Compound | Potency | activity change, negative = inhibition |
| --- | --- | --- |
| CCOC(=O)c1c(C)n(C)c2ccc(OCC(O)CN(CC)CC)cc12 (stereo not given) |  | inconclusive: -13.8% |
| COc1ccc(CC(=O)Nc2cccc(-c3ccc4nnc(C)n4n3)c2)cc1 |  | inconclusive: -6.54% |
| CCN(C(=O)COC(=O)CCC1CCCC1)c1c(N)n(Cc2ccccc2)c(=O)[nH]c1=O |  | inactive |
| CC(=O)N1CCc2c(sc(NC(=O)C3CCCN3S(=O)(=O)c3cccs3)c2C(N)=O)C1 (stereo not given) |  | inconclusive: 12.9% |
| CC(CN1CCOCC1)C(=O)O (stereo not given) |  | inconclusive: 17.4% |
| O=S(=O)(Cc1ccccc1)Nc1ccc(Br)cn1 |  | inconclusive: 10.1% |
| CCN(CC)S(=O)(=O)c1ccc(N2CCOCC2)c(NC(=O)C(C)Oc2ccc(F)cc2)c1 (stereo not given) |  | inactive |
| CC1=CSC2=NC(=O)/C(=C\c3cccn3-c3ccc([N+](=O)[O-])cc3)C(=N)N12 |  | inconclusive: 5.15% |
| Cn1c(N)c(S(=O)(=O)N2CCN(Cc3ccccc3)CC2)c(=O)n(C)c1=O |  | inconclusive: 11.6% |
| CN(NC1OC(=O)c2ccccc21)c1ccc(Cl)cc1[N+](=O)[O-] (stereo not given) | inconclusive: 0.794 µM [rising, full curve, poor fit] |  |
| CN(C)S(=O)(=O)c1cccc(NC(=S)N2CCc3ccccc32)c1 |  | inconclusive: -8.01% |
| C=CCNC(=O)Nc1ccc(OCC)cc1 |  | inactive |
| ClC1(Cl)CC1CSc1ncn[nH]1 (stereo not given) | inconclusive: 17.8 µM [falling, partial curve, poor fit] |  |
| Cc1nc(N2CCCCC2)sc1C(=O)c1ccc(Cl)c([N+](=O)[O-])c1 | inconclusive: 6.31 µM [falling, full curve] |  |
| COc1ccc(NC(=O)C2CCCN(S(=O)(=O)c3ccc4c(c3)CCCN4C(C)=O)C2)cc1 (stereo not given) | inconclusive: 15.8 µM [falling, single point] | inconclusive: -26.6% |
| O=C(Cn1c(=O)n(-c2ccccc2)c(=O)c2oc3ccccc3c21)Nc1ccccc1 |  | inconclusive: 2.15% |
| CC(=O)O[C@H]1CSC[C@H]1NC(=O)c1ccccc1 |  | inconclusive: 6.22% |
| CCOC(=O)[C@H]1[C@H]2COc3cc(OC)ccc3[C@@H]2N2C(=O)N(c3cccc(F)c3)C(=O)[C@@]12C |  | inconclusive: 4.17% |
| O=Nc1c(O)n(Cc2cccc(C(F)(F)F)c2)c2ccccc12 |  | inconclusive: -1.62% |
| COc1cc(C(C)=O)ccc1OCC(=O)Nc1ccccc1N1CCCC1 | inconclusive: 8.91 µM [falling, partial curve] |  |
| CCCCN(C)CCCNC(=O)c1cc(Nc2ccc(OC)c(OC)c2)nc2ccccc12 |  | inconclusive: -0.445% |
| Cc1cc(C(=O)COC(=O)c2ccc(O)cc2O)c(C)n1-c1ccccc1 | inconclusive: 14.6 µM [falling, partial curve] |  |
| Cc1ccc(Nc2c([N+](=O)[O-])ccc3nonc23)cc1C |  | inconclusive: -5.83% |
| COC(=O)[C@@H]1C[C@]2(OC(=O)c3ccccc3)C=CC(=O)C[C@@H]2N1C(=O)OCc1ccccc1 | inconclusive: 20.6 µM [falling, single point] |  |

Entries of single compounds, looked up by structure.
Cc1nc(N2CCCCC2)sc1C(=O)c1ccc(Cl)c([N+](=O)[O-])c1 in the list: Potency: inconclusive: 6.31 µM [falling, full curve]
COc1ccc(NC(=O)C2CCCN(S(=O)(=O)c3ccc4c(c3)CCCN4C(C)=O)C2)cc1 (stereo not given) in the list: Potency: inconclusive: 15.8 µM [falling, single point]; activity change, negative = inhibition: inconclusive: -26.6%
COc1cc(C(C)=O)ccc1OCC(=O)Nc1ccccc1N1CCCC1 in the list: Potency: inconclusive: 8.91 µM [falling, partial curve]
CC(=O)O[C@H]1CSC[C@H]1NC(=O)c1ccccc1 in the list: activity change, negative = inhibition: inconclusive: 6.22%
